{
  "source": "the supplement of paper PMC5407854",
  "about": "“Inhibitor of ppGalNAc-T3-mediated O-glycosylation blocks cancer cell invasiveness and lowers FGF23 levels” (eLife, 2017)",
  "note": "The list shows a part of the results. Most values lie at the level of the controls, where differences are scatter.",
  "data": [
    {"test_system": "ppGalNAc-T2 sensor", "assay": "T2 sensor activation Q score (MG/GFP ratio z-score vs DMSO controls) (SD units); higher = more sensor activation (inhibition of ppGalNAc-T2 glycosylation)", "conditions": "HEK293 sensor cells; 10 µM; 6 h", "experimental": "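Cells were treated with compound at 10 uM for 6 h, then MG/GFP ratio was read by flow cytometry (10,000 cells per well, duplicate wells). Q = (R - R_neg)/SD_neg relative to DMSO vehicle controls; the signal rises when the glycosyltransferase is inhibited.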", "values": [
      {"compound": "CC(C)CSc1nnc2c(n1)[nH]c1ccccc12", "T2 sensor activation Q score": -0.59},
      {"compound": "COc1ccc2nc(N3CCOCC3)cc(C)c2c1", "T2 sensor activation Q score": -0.195},
      {"compound": "Cc1ccc(C)c(C(=O)c2ccccc2C(=O)O)c1", "T2 sensor activation Q score": -0.6},
      {"compound": "COc1ccc(N2C(=O)C(O)=C(C(C)=O)C2c2ccccc2)cc1", "note": "(stereo not given)", "T2 sensor activation Q score": 0.305},
      {"compound": "CN1C(=O)CC(=O)N(C)c2ccccc21", "T2 sensor activation Q score": -0.76},
      {"compound": "COc1ccc(C2OCC3(CO)C(C)C=C(C)C2C3C)cc1", "note": "(stereo not given)", "T2 sensor activation Q score": -0.605},
      {"compound": "COc1ccccc1C(=O)Nc1ccc(-c2nc3cc(C)ccc3o2)cc1", "T2 sensor activation Q score": -0.96},
      {"compound": "Cc1ccccc1OCC(=O)Nc1cccc(Cl)c1C", "T2 sensor activation Q score": -1.02},
      {"compound": "COc1ccccc1CNC(=O)Cc1ccc(OC)c(OC)c1", "T2 sensor activation Q score": -0.705},
      {"compound": "OC(C#CCN1CCCCC1)c1ccccc1", "note": "(stereo not given)", "T2 sensor activation Q score": -0.96},
      {"compound": "CC(=O)c1cc(F)c(N2CCN(C(=O)c3ccc(F)cc3F)CC2)cc1C", "T2 sensor activation Q score": 0.18},
      {"compound": "CCCN1CCC(N(C)CCN(C)C)CC1", "T2 sensor activation Q score": -0.715},
      {"compound": "C=CCNC(=O)Cc1ccc([N+](=O)[O-])cc1", "T2 sensor activation Q score": 1.14},
      {"compound": "CN1CCC(O)(c2ccccc2)C(C)(C)C1", "note": "(stereo not given)", "T2 sensor activation Q score": -0.695},
      {"compound": "O=[N+]([O-])c1ccccc1CN1CCCCCCC1", "T2 sensor activation Q score": -0.43},
      {"compound": "COc1cccc(NC2=C(N(C)C)C(=O)c3ccccc3C2=O)c1", "T2 sensor activation Q score": -0.115},
      {"compound": "Cc1ccc(C)c(CN2CCN(Cc3ccc4c(c3)OCO4)CC2)c1", "T2 sensor activation Q score": -0.275},
      {"compound": "Cc1cccc(OCC(=O)Nc2cc(Cl)ccc2C)c1", "T2 sensor activation Q score": -0.28},
      {"compound": "O=C(Nc1cc(Cl)ccc1Cl)c1ccncc1", "T2 sensor activation Q score": 0.205},
      {"compound": "COc1ccc2[nH]c3c(c2c1)CCNC3=O", "T2 sensor activation Q score": 1.17},
      {"compound": "COc1cc(CN2CCSCC2)cc(OC)c1OC", "T2 sensor activation Q score": 0.36},
      {"compound": "O=C(O)Cn1cc(Br)c(=O)[nH]c1=O", "T2 sensor activation Q score": -0.64},
      {"compound": "CCc1cccc(NC2CC(=O)N(c3ccc(Br)cc3)C2=O)c1", "note": "(stereo not given)", "T2 sensor activation Q score": -1.23},
      {"compound": "Cc1nc2ccc(C(=O)O)cc2[nH]1", "T2 sensor activation Q score": 0.345},
      {"compound": "O=C(O)c1ccc(S(=O)(=O)c2ccccc2)cc1", "T2 sensor activation Q score": -1.24},
      {"compound": "Cc1ccc(NCC(O)C(O)C(O)CO)cc1C", "note": "(stereo not given)", "T2 sensor activation Q score": -0.025},
      {"compound": "COc1ccc(CCNC(=O)C2CCCCC2)cc1OC", "T2 sensor activation Q score": -0.81},
      {"compound": "O=C(COc1ccccc1)N1c2ccccc2Sc2ccccc21", "T2 sensor activation Q score": -0.62},
      {"compound": "CCN1CCN(C/C(C)=C/c2ccccc2)CC1", "T2 sensor activation Q score": 0.345},
      {"compound": "CN(C)CCN(C)Cc1ccccc1F", "T2 sensor activation Q score": 0.78},
      {"compound": "Cc1ccc(C(=O)NCc2ccc([N+](=O)[O-])cc2)cc1", "T2 sensor activation Q score": 0.34},
      {"compound": "CCOc1ccccc1C(=O)Nc1ccc(Cl)cc1F", "T2 sensor activation Q score": -0.24},
      {"compound": "COc1ccc(Nc2cc(-n3cccn3)ncn2)cc1", "T2 sensor activation Q score": -0.67},
      {"compound": "Brc1cnc2nc(COc3ccccc3)[nH]c2c1", "T2 sensor activation Q score": 2.85},
      {"compound": "COc1cc(C)c(CN2CCCCC2)cc1C", "T2 sensor activation Q score": 0.875},
      {"compound": "Cc1cccc(C(=O)Nc2ccc(C(C)C)cc2)c1", "T2 sensor activation Q score": 0.205},
      {"compound": "CC(=O)C1=C(O)C(=O)N(CC(=O)O)C1c1ccccc1", "note": "(stereo not given)", "T2 sensor activation Q score": 0.665},
      {"compound": "Cc1ccc(C(=O)/C=C(\\c2ccccc2)N2CCCCC2)cc1", "T2 sensor activation Q score": 0.985},
      {"compound": "O=C(O)C1CCCCC1C(=O)Nc1ccccc1Cl", "note": "(stereo not given)", "T2 sensor activation Q score": 0.925},
      {"compound": "CN1C(=O)CC(N2CCN(Cc3ccccc3)CC2)C1=O", "note": "(stereo not given)", "T2 sensor activation Q score": -0.205}
    ]}
  ]
}
